Data as given in PubChem BioAssay AID1508597 (Cure First, 2020).

Test: 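Genes whose silencing sensitises or protects ovarian cancer cells against rucaparib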 (primary screen)
Cells: human ovarian carcinoma lines grown from tumours: OCI-P5x (papillary serous) and OCI-C5x (clear cell)
Knock-down reagent: siRNA pool against human genes, 1.25 pmol siRNA per well
Duration: 72 h or 96 h, depending on the cell culture
Conditions: rucaparib 20 µM (about IC30) or vehicle, present until read-out
Rucaparib or vehicle: Vehicle
Cell line: OCI-P5x (serous)
Read-out: 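Luminescent ATP-based viability assay read 72 or 96 h after transfection, depending on culture, given as normalised percent viability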
Scale: viability, normalised: higher = more viable cells remaining
Active means: 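a well counts as a hit if its normalised viability is under 80 percent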
Meaning of the calls: active = viability under 80%; inactive = viability 80% or more
This is an unselected part of the about 2,100 reagents, in one setting of the screen. 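Calls flag viability under 80% in either arm, not effects specific to rucaparib; the reference for percent is not stated.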 A number with no mark means an inactive call. Some reagents were tested in more than one well and are listed for each. No sequences are given here. The record does not give: the 100% reference.

The first 3 entries, to show the layout:
gene | PubChem SID | technical replicate | viability, normalised (%)
PRDM14 (GeneID 63978) | SID405527184 | 1 | 37.8 (active)
PRDM14 (GeneID 63978) | SID405527184 | 2 | 48.6 (active)
PRDM14 (GeneID 63978) | SID405527184 | 3 | 64.2 (active)

The list itself, from the first entry:
gene | PubChem SID | technical replicate | viability, normalised (%)
PRDM14 (GeneID 63978) | SID405527184 | 1 | 37.8 (active)
PRDM14 (GeneID 63978) | SID405527184 | 2 | 48.6 (active)
PRDM14 (GeneID 63978) | SID405527184 | 3 | 64.2 (active)
TERF2IP (GeneID 54386) | SID405528413 | 1 | 64.2 (active)
TERF2IP (GeneID 54386) | SID405528413 | 2 | 76.6 (active)
TERF2IP (GeneID 54386) | SID405528413 | 3 | 65.4 (active)
PRKRA (GeneID 8575) | SID405527198 | 1 | 58.1 (active)
PRKRA (GeneID 8575) | SID405527198 | 2 | 70.8 (active)
PRKRA (GeneID 8575) | SID405527198 | 3 | 93.7
PANK1 (GeneID 53354) | SID405527814 | 1 | 75.2 (active)
PANK1 (GeneID 53354) | SID405527814 | 2 | 70.8 (active)
PANK1 (GeneID 53354) | SID405527814 | 3 | 84.1
DLG3 (GeneID 1741) | SID405527911 | 1 | 71.5 (active)
DLG3 (GeneID 1741) | SID405527911 | 2 | 83.8
DLG3 (GeneID 1741) | SID405527911 | 3 | 75.3 (active)
SUPT16H (GeneID 11198) | SID405526509 | 1 | 75.4 (active)
SUPT16H (GeneID 11198) | SID405526509 | 1 | 66.7 (active)
SUPT16H (GeneID 11198) | SID405526509 | 2 | 77.9 (active)
SUPT16H (GeneID 11198) | SID405526509 | 2 | 58 (active)
SUPT16H (GeneID 11198) | SID405526509 | 3 | 63.1 (active)
SUPT16H (GeneID 11198) | SID405526509 | 3 | 64.3 (active)
UTY (GeneID 7404) | SID405526615 | 1 | 92.7
UTY (GeneID 7404) | SID405526615 | 2 | 115
UTY (GeneID 7404) | SID405526615 | 3 | 107
PKMYT1 (GeneID 9088) | SID405527601 | 1 | 104
PKMYT1 (GeneID 9088) | SID405527601 | 2 | 94.9
PKMYT1 (GeneID 9088) | SID405527601 | 3 | 105
ABL2 (GeneID 27) | SID405527799 | 1 | 77.6 (active)
ABL2 (GeneID 27) | SID405527799 | 2 | 77.7 (active)
ABL2 (GeneID 27) | SID405527799 | 3 | 72.7 (active)
PNKP (GeneID 11284) | SID405528330 | 1 | 81
PNKP (GeneID 11284) | SID405528330 | 2 | 94.6
PNKP (GeneID 11284) | SID405528330 | 3 | 80
MTHFR (GeneID 4524) | SID405528485 | 1 | 57.4 (active)
MTHFR (GeneID 4524) | SID405528485 | 2 | 79.7 (active)
MTHFR (GeneID 4524) | SID405528485 | 3 | 68.8 (active)
MACROH2A1 (GeneID 9555) | SID405526833 | 1 | 55.1 (active)
MACROH2A1 (GeneID 9555) | SID405526833 | 2 | 55.1 (active)
MACROH2A1 (GeneID 9555) | SID405526833 | 3 | 59.1 (active)
USP16 (GeneID 10600) | SID405526610 | 1 | 48.9 (active)
USP16 (GeneID 10600) | SID405526610 | 2 | 53 (active)
USP16 (GeneID 10600) | SID405526610 | 3 | 46.6 (active)
CHD1L (GeneID 9557) | SID405528100 | 1 | 46.2 (active)
CHD1L (GeneID 9557) | SID405528100 | 2 | 87.4
CHD1L (GeneID 9557) | SID405528100 | 3 | 83.6
EPAS1 (GeneID 2034) | SID405526757 | 1 | 70.1 (active)
EPAS1 (GeneID 2034) | SID405526757 | 2 | 74.8 (active)
EPAS1 (GeneID 2034) | SID405526757 | 3 | 72.4 (active)
TBXT (GeneID 6862) | SID405526516 | 1 | 75.3 (active)
TBXT (GeneID 6862) | SID405526516 | 2 | 73.3 (active)
TBXT (GeneID 6862) | SID405526516 | 3 | 47.8 (active)
MED20 (GeneID 9477) | SID405526995 | 1 | 49 (active)
MED20 (GeneID 9477) | SID405526995 | 2 | 63.5 (active)
MED20 (GeneID 9477) | SID405526995 | 3 | 65.2 (active)
DHX38 (GeneID 9785) | SID405528219 | 1 | 73.1 (active)
DHX38 (GeneID 9785) | SID405528219 | 2 | 86.3
DHX38 (GeneID 9785) | SID405528219 | 3 | 80.6
